These are yes or no findings as the source states them, for the method shown. Binding seen in cells or lysates may run through a third protein. Here binding means that the protein was enriched with, or labelled near, the bait; the list need not be complete. Values belong to the binder of their own block, whether it stands above or below them.
How the values were obtained:
[1] = target: Ago2/TNRC6C split-BioID pair (CBirA*-Ago2 with NBirA*-TNRC6C); experiment: proximity labelling; split-BioID in transiently transfected HeLa 11ht cells (CBirA*-Ago2 with NBirA*-Dicer or NBirA*-TNRC6C); 50 μM biotin, 200 ng/ml doxycycline, 24 h; capture on streptavidin beads, MS with label-free quantification, triplicates; enrichment over six unrelated BioID runs and the GFP control
[2] = target: Ago2/TNRC6C split-BioID pair (CBirA*-Ago2 with NBirA*-TNRC6C); experiment: proximity labelling; split-BioID in transiently transfected HeLa 11ht cells (CBirA*-Ago2 with NBirA*-Dicer, -TNRC6C or -GFP); streptavidin capture of the biotinylated proteins, western blot of the eluates

binding [1]: binds
B1: RC3H2 (protein, UniProt Q9HBD1 1-1191)
chain: MPVQAAQWTEFLSCPICYNEFDENVHKPISLGCSHTVCKTCLNKLHRKACPFDQTAINTDIDVLPVNFALLQLVGAQVPDHQSIKLSNLGENKHYEVAKKCVEDLALYLKPLSGGKGVASLNQSALSRPMQRKLVTLVNCQLVEEEGRVRAMRAARSLGERTVTELILQHQNPQQLSANLWAAVRARGCQFLGPAMQEEALKLVLLALEDGSALSRKVLVLFVVQRLEPRFPQASKTSIGHVVQLLYRASCFKVTKRDEDSSLMQLKEEFRSYEALRREHDAQIVHIAMEAGLRISPEQWSSLLYGDLAHKSHMQSIIDKLQSPESFAKSVQELTIVLQRTGDPANLNRLRPHLELLANIDPNPDAVSPTWEQLENAMVAVKTVVHGLVDFIQNYSRKGHETPQPQPNSKYKTSMCRDLRQQGGCPRGTNCTFAHSQEELEKYRLRNKKINATVRTFPLLNKVGVNNTVTTTAGNVISVIGSTETTGKIVPSTNGISNAENSVSQLISRSTDSTLRALETVKKVGKVGANGQNAAGPSADSVTENKIGSPPKTPVSNVAATSAGPSNVGTELNSVPQKSSPFLTRVPVYPPHSENIQYFQDPRTQIPFEVPQYPQTGYYPPPPTVPAGVAPCVPRFVRSNNVPESSLPPASMPYADHYSTFSPRDRMNSSPYQPPPPQPYGPVPPVPSGMYAPVYDSRRIWRPPMYQRDDIIRSNSLPPMDVMHSSVYQTSLRERYNSLDGYYSVACQPPSEPRTTVPLPREPCGHLKTSCEEQIRRKPDQWAQYHTQKAPLVSSTLPVATQSPTPPSPLFSVDFRADFSESVSGTKFEEDHLSHYSPWSCGTIGSCINAIDSEPKDVIANSNAVLMDLDSGDVKRRVHLFETQRRTKEEDPIIPFSDGPIISKWGAISRSSRTGYHTTDPVQATASQGSATKPISVSDYVPYVNAVDSRWSSYGNEATSSAHYVERDRFIVTDLSGHRKHSSTGDLLSLELQQAKSNSLLLQREANALAMQQKWNSLDEGRHLTLNLLSKEIELRNGELQSDYTEDATDTKPDRDIELELSALDTDEPDGQSEPIEEILDIQLGISSQNDQLLNGMAVENGHPVQQHQKEPPKQKKQSLGEDHVILEEQKTILPVTSCFSQPLPVSISNASCLPITTSVSAGNLILKTHVMSEDKNDFLKPVANGKMVNS

binding [2]: binds
binding [1]: binds
B2: GIGYF2 (protein, UniProt Q6Y7W6 1-1299)
chain: MAAETQTLNFGPEWLRALSSGGSITSPPLSPALPKYKLADYRYGREEMLALFLKDNKIPSDLLDKEFLPILQEEPLPPLALVPFTEEEQRNFSMSVNSAAVLRLTGRGGGGTVVGAPRGRSSSRGRGRGRGECGFYQRSFDEVEGVFGRGGGREMHRSQSWEERGDRRFEKPGRKDVGRPNFEEGGPTSVGRKHEFIRSESENWRIFREEQNGEDEDGGWRLAGSRRDGERWRPHSPDGPRSAGWREHMERRRRFEFDFRDRDDERGYRRVRSGSGSIDDDRDSLPEWCLEDAEEEMGTFDSSGAFLSLKKVQKEPIPEEQEMDFRPVDEGEECSDSEGSHNEEAKEPDKTNKKEGEKTDRVGVEASEETPQTSSSSARPGTPSDHQSQEASQFERKDEPKTEQTEKAEEETRMENSLPAKVPSRGDEMVADVQQPLSQIPSDTASPLLILPPPVPNPSPTLRPVETPVVGAPGMGSVSTEPDDEEGLKHLEQQAEKMVAYLQDSALDDERLASKLQEHRAKGVSIPLMHEAMQKWYYKDPQGEIQGPFNNQEMAEWFQAGYFTMSLLVKRACDESFQPLGDIMKMWGRVPFSPGPAPPPHMGELDQERLTRQQELTALYQMQHLQYQQFLIQQQYAQVLAQQQKAALSSQQQQQLALLLQQFQTLKMRISDQNIIPSVTRSVSVPDTGSIWELQPTASQPTVWEGGSVWDLPLDTTTPGPALEQLQQLEKAKAAKLEQERREAEMRAKREEEERKRQEELRRQQEEILRRQQEEERKRREEEELARRKQEEALRRQREQEIALRRQREEEERQQQEEALRRLEERRREEEERRKQEELLRKQEEEAAKWAREEEEAQRRLEENRLRMEEEAARLRHEEEERKRKELEVQRQKELMRQRQQQQEALRRLQQQQQQQQLAQMKLPSSSTWGQQSNTTACQSQATLSLAEIQKLEEERERQLREEQRRQQRELMKALQQQQQQQQQKLSGWGNVSKPSGTTKSLLEIQQEEARQMQKQQQQQQQHQQPNRARNNTHSNLHTSIGNSVWGSINTGPPNQWASDLVSSIWSNADTKNSNMGFWDDAVKEVGPRNSTNKNKNNASLSKSVGVSNRQNKKVEEEEKLLKLFQGVNKAQDGFTQWCEQMLHALNTANNLDVPTFVSFLKEVESPYEVHDYIRAYLGDTSEAKEFAKQFLERRAKQKANQQRQQQQLPQQQQQQPPQQPPQQPQQQDSVWGMNHSTLHSVFQTNQSNNQQSNFEAVQSGKKKKKQKMVRADPSLLGFSVNASSERLNMGEIETLDDY

binding [1]: binds
B3: ATXN2L (protein, UniProt Q8WWM7 1-1075)
chain: MLKPQPLQQPSQPQQPPPTQQAVARRPPGGTSPPNGGLPGPLATSAAPPGPPAAASPCLGPVAAAGSGLRRGAEGILAPQPPPPQQHQERPGAAAIGSARGQSTGKGPPQSPVFEGVYNNSRMLHFLTAVVGSTCDVKVKNGTTYEGIFKTLSSKFELAVDAVHRKASEPAGGPRREDIVDTMVFKPSDVMLVHFRNVDFNYATKDKFTDSAIAMNSKVNGEHKEKVLQRWEGGDSNSDDYDLESDMSNGWDPNEMFKFNEENYGVKTTYDSSLSSYTVPLEKDNSEEFRQRELRAAQLAREIESSPQYRLRIAMENDDGRTEEEKHSAVQRQGSGRESPSLASREGKYIPLPQRVREGPRGGVRCSSSRGGRPGLSSLPPRGPHHLDNSSPGPGSEARGINGGPSRMSPKAQRPLRGAKTLSSPSNRPSGETSVPPPPAVGRMYPPRSPKSAAPAPISASCPEPPIGSAVPTSSASIPVTSSVSDPGVGSISPASPKISLAPTDVKELSTKEPGRTLEPQELARIAGKVPGLQNEQKRFQLEELRKFGAQFKLQPSSSPENSLDPFPPRILKEEPKGKEKEVDGLLTSEPMGSPVSSKTESVSDKEDKPPLAPSGGTEGPEQPPPPCPSQTGSPPVGLIKGEDKDEGPVAEQVKKSTLNPNAKEFNPTKPLLSVNKSTSTPTSPGPRTHSTPSIPVLTAGQSGLYSPQYISYIPQIHMGPAVQAPQMYPYPVSNSVPGQQGKYRGAKGSLPPQRSDQHQPASAPPMMQAAAAAGPPLVAATPYSSYIPYNPQQFPGQPAMMQPMAHYPSQPVFAPMLQSNPRMLTSGSHPQAIVSSSTPQYPSAEQPTPQALYATVHQSYPHHATQLHAHQPQPATTPTGSQPQSQHAAPSPVQHQAGQAPHLGSGQPQQNLYHPGALTGTPPSLPPGPSAQSPQSSFPQPAAVYAIHHQQLPHGFTNMAHVTQAHVQTGITAAPPPHPGAPHPPQVMLLHPPQSHGGPPQGAVPQSGVPALSASTPSPYPYIGHPQGEQPGQAPGFPGGADDRIREFSLAGGIWHGRAEGLQVGQDARVLGGE

Reference: publication PMC5467174
